Measured values: ChEMBL document CHEMBL1137754, “Inhibitors of potassium channels KV1.3 and IK-1 as immunosuppressants” (Bioorg Med Chem Lett, 2009)
The source made the active and inactive calls. The rule behind the calls is not given here.

Assays:
[1] = system: PBMC; test: Immunosuppressant activity in human effector memory T cells of PBMC assessed as inhibition of anti-CD3 antibody-induced cell proliferation by ELISA; format: functional, cell-based
[2] = system: PBMC; test: Immunosuppressant activity in human effector memory T cells of PBMC assessed as inhibition of anti-CD3 antibody-induced cell proliferation by ELISA in presence of 5 uM Kv1.3-blocker PAP1; format: functional, cell-based
Summary of the method: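 T_EM fraction of PBMCs stimulated with anti-CD3 antibody; proliferation dose–response curves for one channel blocker were run against a fixed background of a blocker of the other channel (IK-1 blocker, or 5 µM PAP-1 for Kv1.3). The read-out was EC50.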

SMILES: O=C1CN(S(=O)(=O)c2ccc(Cl)cc2)c2ccccc2-c2ccccc21
- Activity [1]: inactive
- EC50 [2]: 8 µM
